In PubChem BioAssay AID1671190 (National Center for Advancing Translational Sciences (NCATS), 2021):
Values joined by “and” are separate entries in the source; they are usually repeats but may differ in a detail not shown here. Identical values can stand only once. Screen size: about 580,000 compounds; about 6,100 (1.1%) were called active. Inconclusive means that the source gave no clear call. Such entries were picked first, then a sample of the others. Calls come from the whole dose curve; as a rule, active = well fitted inhibition curve with a large enough effect; inconclusive = small, poorly fitted or top-dose-only effect, or another doubt; inactive = no such curve, though single readings can be large or run the other way. Potencies of inconclusive entries are doubtful fits and often do not repeat.
% is set by controls: 0 for no effect and ±100 for the full control effect; potency is the fitted concentration of half-maximal effect.

The chains behind the UniProt entries cited, without tags or fusion partners. Where a name states a change or a piece, a line headed by the entry shows the natural chain unless it says otherwise.
UniProt P18054: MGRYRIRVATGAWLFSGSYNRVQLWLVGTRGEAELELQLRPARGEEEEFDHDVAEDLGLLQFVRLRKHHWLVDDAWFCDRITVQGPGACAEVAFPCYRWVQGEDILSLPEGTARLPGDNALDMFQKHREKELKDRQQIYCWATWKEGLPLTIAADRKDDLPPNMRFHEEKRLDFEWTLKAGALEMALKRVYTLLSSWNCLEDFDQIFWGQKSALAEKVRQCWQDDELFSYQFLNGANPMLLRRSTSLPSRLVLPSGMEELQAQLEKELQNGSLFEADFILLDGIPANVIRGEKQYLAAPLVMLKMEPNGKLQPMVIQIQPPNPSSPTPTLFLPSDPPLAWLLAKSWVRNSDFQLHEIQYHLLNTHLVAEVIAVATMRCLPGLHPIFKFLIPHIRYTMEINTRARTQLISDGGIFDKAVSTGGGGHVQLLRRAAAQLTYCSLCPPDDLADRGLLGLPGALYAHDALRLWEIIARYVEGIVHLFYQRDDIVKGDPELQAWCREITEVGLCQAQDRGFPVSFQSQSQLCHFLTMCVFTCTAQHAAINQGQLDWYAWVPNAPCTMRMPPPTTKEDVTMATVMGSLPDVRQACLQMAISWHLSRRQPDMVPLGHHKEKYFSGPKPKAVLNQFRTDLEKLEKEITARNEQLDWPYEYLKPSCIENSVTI

The compounds below were run against Polyunsaturated fatty acid lipoxygenase ALOX12 (Homo sapiens) (UniProt P18054) (assay: Primary qHTS assay for inhibitors of human arachidonate 12S-lipoxygenase (ALOX12): Round 2). Details: purified 12hLO, xylenol orange hydroperoxide absorbance; activity change, negative = inhibition: at 108 µM (top of the series) unless noted.
Summary of the method: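 Purified human 12hLO at 150 nM in 25 mM Hepes, 0.01% Triton X-100, pH 7.0, preincubated 15 min at room temperature with compound. Reaction started with 40 uM arachidonic acid, 30 min at room temperature. Hydroperoxide measured by Fe-xylenol orange, 573/405 nm absorbance ratio.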
In the case of CCOc1cc(N2CCOCC2)c(OCC)cc1NC(=O)CCC1CCCC1, the Potency is reported as inconclusive: 63.1 µM [inhibitor, partial curve, poor fit].
In the case of Cc1ccc(-n2nc(C)c3c(C(=O)NC4CCN(Cc5ccccc5)CC4)cc(C)nc32)cc1, the Potency is reported as active: 7.08 µM.
For COc1ccc(/C=C2\SC(=S)N(CC(=O)NCCO)C2=O)cc1, the Potency was inconclusive: 10 µM [inhibitor, partial curve].
With N=C1S/C(=C\c2ccccc2F)C(=O)N1c1ccc(F)cc1 the “activity change, negative = inhibition” value was inactive: -0.974%.
With O=C1CC(c2ccccc2)CC2=C1C1(CCCC1)N=C(Nc1nc3ccccc3o1)N2 (stereo unspecified) the Potency was inconclusive: 50.1 µM [inhibitor, partial curve, poor fit].
With COc1ccc(OC)c2sc(N(CCN(C)C)C(=O)/C=C/c3cccs3)nc12 the Potency was inconclusive: 89.1 µM [inhibitor, partial curve, poor fit].
For Cc1ccc(CCNCc2c(C(=O)O)c(C)n(-c3ccccc3)c2C)cc1, the Potency was inconclusive: 44.7 µM [inhibitor, partial curve, poor fit].
O=C(Nc1ccc2c(c1)C(=O)NC2=O)c1cccc(Cl)c1 was tested, and the Potency was inconclusive: 100 µM [inhibitor, single point].
With COc1ccccc1Nc1nc2nccc(-c3ccco3)c2c(=O)[nH]1 the Potency was inconclusive: 39.8 µM [inhibitor, partial curve, poor fit].
In the case of Cc1cccc(CSCC(=O)N2CCCC2)c1, the “activity change, negative = inhibition” value is reported as inactive: 0.948%.
In the case of Cc1ccc(C(=O)NNC(=S)NC(=O)COc2ccccc2)cc1, the Potency is reported as inconclusive: 35.5 µM [inhibitor, partial curve, poor fit].
For Cc1cc(C)nc(NC(=S)NC(=O)c2ccccc2F)n1, the Potency was inconclusive: 3.55 µM [inhibitor, full curve, poor fit].
For CCn1cc(S(=O)(=O)CC(=O)Nc2ccc3c(c2)OCCO3)c2ccccc21, the Potency was inconclusive: 12.6 µM [inhibitor, partial curve, poor fit].
In the case of COc1ccc2c(c1)C(C[C@H]1CN(C(=O)C(C)(C)C)CC[C@H]1CC(=O)O)=NCC2, the Potency is reported as inconclusive: 39.8 µM [inhibitor, full curve].
In the case of O=C(OCCCN1CCCC1)C1(c2ccccc2)CCCC1, the “activity change, negative = inhibition” value is reported as inactive: -0.405%.
OC(c1ccccc1)c1nc(-c2ccc3c(c2)OCO3)cs1 (stereo unspecified) was tested, and the Potency was inconclusive: 100 µM [inhibitor, partial curve, poor fit].
In the case of Cc1ccc(Cl)c2sc(NC(=O)C3=COCCO3)nc12, the Potency is reported as inconclusive: 7.08 µM [inhibitor, partial curve, poor fit].
For CN(Cc1ccc(C(=O)NC2CC2)cc1)c1nc2ccccc2o1, the “activity change, negative = inhibition” value was inactive: -38.4%.
For CCCOc1ccc(CC(=O)NCc2ccco2)cc1OC, the “activity change, negative = inhibition” value was inactive: 0%.
In the case of Cc1cc(C(=O)NNc2cc(Cl)ccc2Cl)no1, the Potency is reported as inconclusive: 39.8 µM [inhibitor, partial curve, poor fit].
For CCN1C(=O)CCc2cc(NC(=O)c3cc(OC)cc(OC)c3)ccc21, the Potency was inconclusive: 79.4 µM [inhibitor, single point].
C/C=C/C1=CC(=O)C[C@H](c2ccc(Cl)cc2)C1 was tested, and the Potency was inconclusive: 50.1 µM [inhibitor, partial curve, poor fit].
With CC(C)(C)c1ccc(/C=N/NC(=S)NCc2ccccc2)cc1 the Potency was active: 44.7 µM.
Cc1ccc(S(=O)(=O)CC(=O)Nc2ccc(S(=O)(=O)Nc3ccccn3)cc2)cc1 was tested, and the Potency was inconclusive: 2.24 µM [inhibitor, partial curve, poor fit].
In the case of CC1C/C(=N/Nc2ccc([N+](=O)[O-])cc2[N+](=O)[O-])CC(C)(C)C1 (stereo unspecified), the Potency is reported as inconclusive: 31.6 µM [inhibitor, partial curve, poor fit].
For Cc1cccc(-n2nc(-c3c(C)nc4scc(CC(=O)NC(C)C(C)C)n4c3=O)cc2C)c1C (stereo unspecified), the Potency was inconclusive: 17.8 µM [inhibitor, full curve].
With Cc1ccc(NC(=O)CCNc2c(C)nc3cnccn23)c(F)c1 the Potency was inconclusive: 79.4 µM [inhibitor, single point].
In the case of COCCCn1c(=O)c2ccccc2n2c(=S)[nH]nc12, the Potency is reported as inconclusive: 15.8 µM [inhibitor, full curve].
In the case of Cc1ccc(C)c(NC(=S)NNC(=S)Nc2ccc(C(C)C)cc2)c1, the Potency is reported as active: 35.5 µM.
For COCCN1C(=O)C(=O)/C(=C(/O)c2ccc(OC)cc2C)C1c1ccncc1 (stereo unspecified), the Potency was inconclusive: 35.5 µM [inhibitor, full curve, poor fit].
CC(CC(=O)Nc1nccs1)c1ccccc1 (stereo unspecified) was tested, and the Potency was inconclusive: 112 µM [inhibitor, single point].
In the case of CCN1CCN(C(c2ccccc2)c2nnnn2C(C)(C)C)CC1 (stereo unspecified), the Potency is reported as inconclusive: 112 µM [inhibitor, single point].
In the case of CCOC(=O)c1c(C)[nH]c(C)c1C(=O)COc1ncnc2ccccc12, the “activity change, negative = inhibition” value is reported as inactive: -9.51%.
In the case of O=C(CCn1c(=O)c2cccn2c2ccc(F)cc21)NCCc1ccccc1, the Potency is reported as “inactive and inconclusive: 89.1 µM [inhibitor, partial curve, poor fit]”.
With Cc1nn(-c2ccc(F)cc2)c2nc(C3CC3)c(Cl)c(C(=O)O)c12 the “activity change, negative = inhibition” value was inactive: -24.8%.
With COc1cccc(CN(C)Cc2cc(=O)oc3cc(O)c(Cl)cc23)c1 the “activity change, negative = inhibition” value was inactive: -15.5%.
For Cc1ccccc1-n1c(=S)[nH]c2nc3c(cc2c1=O)CCCC3, the “activity change, negative = inhibition” value was inactive: -0.0319%.
In the case of Cc1ccc(Cl)c2c1NC(=O)C2(O)CC(=O)c1ccc(F)cc1 (stereo unspecified), the “activity change, negative = inhibition” value is reported as inactive: -0.862%.
For O=C(Nc1ncc(C(F)(F)F)cc1Cl)c1ccc(S(=O)(=O)N2CCOCC2)cc1, the “activity change, negative = inhibition” value was inactive: 40.7%.
With COc1cc(=O)[nH]c(SC(C)C(=O)Nc2nc3c(s2)CCCC3)n1 (stereo unspecified) the Potency was inconclusive: 39.8 µM [inhibitor, partial curve, poor fit].
With COc1ccc(C(=O)N2CCN(Cc3ccccn3)CC2)cc1 the Potency was inconclusive: 0.891 µM [inhibitor, full curve, poor fit].
Oc1ccc(N=Nc2ccccc2-c2nn[nH]n2)c(O)c1 was tested, and the Potency was inconclusive: 44.7 µM [inhibitor, partial curve, poor fit].
With CCC(=O)N1CCc2cc(CNC(=O)C(CC)c3ccccc3)ccc21 (stereo unspecified) the Potency was inconclusive: 158 µM [inhibitor, single point].
With CC(C)C1=NOC2(CCCN([S+](=O)([O-])c3cccs3)C2)C1 (stereo unspecified) the activity change, negative = inhibition was inactive: 0.0498% [at 6.33 µM].
COc1cccc(C(=O)SC2=NCCS2)c1 was tested, and the Potency was inconclusive: 8.91 µM [inhibitor, partial curve, poor fit].
With COC(=O)C(=C/C=C/c1ccco1)C(=O)OC the Potency was inconclusive: 39.8 µM [inhibitor, partial curve, poor fit].
In the case of O=C(c1ccc([N+](=O)[O-])cc1[N+](=O)[O-])N1CCc2ccccc21, the Potency is reported as inconclusive: 20 µM [inhibitor, partial curve, poor fit].
For CCOc1cccc(CN2C[C@@H]3C(=O)N(CCCN4CCCC4=O)C(=O)[C@@H]3C2)c1, the “activity change, negative = inhibition” value was inactive: 69.2%.
With CC(=O)/C(=N/Nc1ccccc1Cl)Sc1nnc(C(O)c2ccccc2)n1-c1ccccc1 (stereo unspecified) the Potency was inconclusive: 31.6 µM [inhibitor, partial curve, poor fit].
With O=C(O)CSc1ccc(Br)cc1 the “activity change, negative = inhibition” value was inactive: -43.4%.
With CCCC(c1nnnn1C(C)(C)C)N1CCN(Cc2ccccc2)CC1 (stereo unspecified) the Potency was inconclusive: 50.1 µM [inhibitor, partial curve, poor fit].
In the case of CC(C)C(NC(=O)c1ccccc1F)C(=O)NCc1ccc(F)cc1 (stereo unspecified), the Potency is reported as inconclusive: 89.1 µM [inhibitor, single point].
With Cc1ccc(CNC(=O)CCSCc2ccccc2F)cc1 the Potency was inconclusive: 158 µM [inhibitor, partial curve, poor fit].
With COc1ccc(N2CCN(C(=O)c3ccc4c(c3)NC(=O)C(CSCc3ccccc3F)N4)CC2)cc1 (stereo unspecified) the Potency was active: 4.47 µM.
With C=CCn1c(SCC(=O)c2ccc(O)c(O)c2)nnc1-c1cccc(OC)c1 the Potency was inconclusive: 50.1 µM [inhibitor, partial curve, poor fit].
For FC(F)(F)c1ccc(N2C3CCC2CN(Cc2cccs2)C3)cc1, the Potency was inconclusive: 15.8 µM [inhibitor, full curve].
With COc1cc(OC)cc(C(=O)Oc2cccc3ccc(C)nc23)c1 the Potency was inconclusive: 2 µM [inhibitor, full curve, poor fit].
For O=S(=O)(NCCN1CCOCC1)c1ccc(F)c(Cl)c1, the Potency was active: 20 µM.
COc1ccc(NC(=O)c2cccc3c(-c4ccc(O)c(OC)c4)coc23)cc1 was tested, and the Potency was inconclusive: 50.1 µM [inhibitor, partial curve, poor fit].
With CCCc1cc(=O)[nH]c(SC/C=C/c2ccccc2)n1 the “activity change, negative = inhibition” value was inactive: 0%.
For COc1cc2ncc(-c3ccccc3)nc2cc1OC, the Potency was “inactive”.
In the case of Cc1ccc(Nc2c(-c3cc(Br)ccc3F)nc3cc(C)ccn23)cc1, the Potency is reported as inconclusive: 44.7 µM [inhibitor, partial curve, poor fit].
For CN(CC(=O)Nc1ccc(Cl)cc1)C1CCCCC1, the Potency was inconclusive: 35.5 µM [inhibitor, single point].
With Cn1nc(C2CCCN2)c2c(C(=O)NCc3ccncc3)cc(C3CC3)nc21 (stereo unspecified) the Potency was inconclusive: 12.6 µM [inhibitor, partial curve, poor fit].
In the case of COc1ccc(/C(O)=C2/C(=O)C(=O)N(CCCN3CCOCC3)C2c2ccc(OC)cc2)cc1 (stereo unspecified), the Potency is reported as inconclusive: 44.7 µM [inhibitor, partial curve, poor fit].
With Cc1c(N=Nc2c(-c3ccc([N+](=O)[O-])cc3)[nH]n(C(N)=S)c2=O)cccc1[N+](=O)[O-] the Potency was inconclusive: 28.2 µM [inhibitor, partial curve, poor fit].
